Source: the supplement of paper PMC12067093, “Discovery and optimisation of a covalent ligand for TRIM25 and its application to targeted protein ubiquitination” (Chemical Science, 2025)
This is one part of the list.

Compound: Cc1cc(ccc1-c1ccccc1)C(=O)N1CCCN(CC1)C(=O)CCl [compound 10]
Experiment: probe-labelled cysteine peptide fold change vs DMSO (competition) (log2 fold change); higher = less target engagement (more negative = stronger competition)
Details: THP-1, incubation time: 4 h
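Note: competitive profiling in live THP-1 cells: cysteine peptides tagged with an iodoacetamide desthiobiotin (IA-DTB) probe, intensity after compound treatment relative to DMSO-treated cells.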

Target	probe-labelled cysteine peptide fold change (10 µM)	probe-labelled cysteine peptide fold change (50 µM)
DBR1_Q9UK59_9_VAVAGCCHGELDK (UniProt Q9UK59)	-0.043	-0.372
DCTN6_O00399_18_IAPGAVVCVESEIR (UniProt O00399)	-0.272	0.0612
CYLD_Q9NQC7_934_RIQGCAR (UniProt Q9NQC7)	-0.0418	-0.316
DCTD_P32321_83_LDTKYPYVCHAELNAIMNK (UniProt P32321)	-0.129	-0.614
CYFIP1_Q7L576_519_TVCDWETGHEPFNDPALRGEK (UniProt Q7L576)	-0.187	0.197
DBR1_Q9UK59_8+9_VAVAGCCHGELDK (UniProt Q9UK59)	-0.255	-0.677
CUL3_Q13618_462+464_LKTECGCQFTSK (UniProt Q13618)	-0.0794	-1.31
DCP2_Q8IU60_73_AVFSHCPFLLPQGEDVEK (UniProt Q8IU60)	0.225	-0.158
DCLRE1C_Q96SD1_333_DFLSYLCPVNAYPNVIPVGTTMDK (UniProt Q96SD1)	0.118	-0.13
DCPS_Q96C86_307_AHLLAEVIENLECDPR (UniProt Q96C86)	-0.0605	-0.0923
CYTH4_Q9UIA0_329_KPFCLELYNPSCR (UniProt Q9UIA0)	-0.00483	-0.449
CTSB_P07858_93_EQWPQCPTIK (UniProt P07858)	-0.21	-0.235
DAXX_Q9UER7_131_LYVYINELCTVLK (UniProt Q9UER7)	0.106	-0.0447
CYFIP1_Q7L576_519_TVCDWETGHEPFNDPALR (UniProt Q7L576)	-0.16	0.612
CTSA_P10619_241_LWSSLQTHCCSQNK (UniProt P10619)	0.0659	0.0865
CUL7_Q14999_952_CQQGGIDTR (UniProt Q14999)	-0.417	-0.0198
CUL9_Q8IWT3_176_ETGALDLLMHMLCNPEPQIR (UniProt Q8IWT3)	0.116	-0.219
CWF19L1_Q69YN2_11_LLACGDVEGK (UniProt Q69YN2)	-0.0743	0.168
DCTN4_Q9UJW0_280_KCEHNLSKPEFNPTSIK (UniProt Q9UJW0)	-0.0511	-0.0509
DDA1_Q9BW61_25_FHADSVCK (UniProt Q9BW61)	-0.0973	-0.511
CTSD_P07339_286_AYWQVHLDQVEVASGLTLCK (UniProt P07339)	0.0862	-0.0819

Whole records, quoted from the list. Order of values: probe-labelled cysteine peptide fold change (10 µM) | probe-labelled cysteine peptide fold change (50 µM)
CTSA_P10619_241_LWSSLQTHCCSQNK (UniProt P10619) is entered as 0.0659 | 0.0865
CYFIP1_Q7L576_519_TVCDWETGHEPFNDPALRGEK (UniProt Q7L576) is entered as -0.187 | 0.197
CTSB_P07858_93_EQWPQCPTIK (UniProt P07858) is entered as -0.21 | -0.235
CUL9_Q8IWT3_176_ETGALDLLMHMLCNPEPQIR (UniProt Q8IWT3) is entered as 0.116 | -0.219

Following part:

Target	probe-labelled cysteine peptide fold change (10 µM)	probe-labelled cysteine peptide fold change (50 µM)
CUL5_Q93034_51_QQWFDLFSDVHAVCLWDDKGPAK (UniProt Q93034)	-0.119	-0.574
DBR1_Q9UK59_347_VPCNFSVTAACYDPSKPQTQMQLIHR (UniProt Q9UK59)	-0.109	-0.299
DDB1_Q16531_128_IGRPSETGIIGIIDPECR (UniProt Q16531)	0.108	0.145
DBT_P11182_279_IPHFGYCDEIDLTELVK (UniProt P11182)	-0.0741	0.014
DARS_P14868_259_QMCICADFEK (UniProt P14868)	0.07	-0.051
CXorf21_Q9HAI6_117_ETYLVPSSCK (UniProt Q9HAI6)	-0.19	-0.445
DCTN1_Q14203_1252_VTFSCAAGFGQR (UniProt Q14203)	0.0513	0.00499
CXCR2_P25025_286_TQVIQETCER (UniProt P25025)	-0.0177	0.301
CTSB_P07858_105+108_EIRDQGSCGSCWAFGAVEAISDR (UniProt P07858)	-0.142	-0.642
DCTN1_Q14203_830_MPGTDAPGIPAALAFGPQVSDTLLDCR (UniProt Q14203)	0.345	0.472
CTPS2_Q9NRF8_313_DCYASVFK (UniProt Q9NRF8)	0.13	0.171
DCUN1D1_Q96GG9_115_AATQCEFSK (UniProt Q96GG9)	0.0985	0.11
DARS2_Q6PI48_590_LICLVTGSPSIR (UniProt Q6PI48)	0.0443	0.892
CXorf38_Q8TB03_103_NGDVHWGNCRPGR (UniProt Q8TB03)	-0.04	0.0793
DCAF12_Q5T6F0_141_DREPGGVTQQGCGIHAIELNPSR (UniProt Q5T6F0)	-0.144	-0.282
CUL4A_Q13619_94_YNLEELYQAVENLCSHK (UniProt Q13619)	-0.05	0.0488
CTTNBP2NL_Q9P2B4_312_GTATEPLMLMSVFCQTESFPAER (UniProt Q9P2B4)	0.204	0.436
CTSO_P43234_204_AQNGLCHYFSGSHSGFSIK (UniProt P43234)	0.165	0.0208
CWF19L1_Q69YN2_87_YFQDADGCELAENITYLGR (UniProt Q69YN2)	-0.174	0.0812
DCAF10_Q5QP82_213_TLSEAHEDCVNNIR (UniProt Q5QP82)	-0.0454	-0.222
DBNL_Q9UJU6_127_AEEDVEPECIMEK (UniProt Q9UJU6)	-0.0618	-0.108

Target	probe-labelled cysteine peptide fold change (10 µM)	probe-labelled cysteine peptide fold change (50 µM)
CUL4B_Q13620_292+297_CWQNHCR (UniProt Q13620)	-0.0771	0.145
DCAF12L1_Q5VU92_117_CNTLFVVDVESGHIAR (UniProt Q5VU92)	0.017	0.105
CTSC_P53634_355_YYSSEYHYVGGFYGGCNEALMK (UniProt P53634)	0.171	0.075
DACH1_Q9UI36_279_DFETLYNDCTNASSR (UniProt Q9UI36)	0.0622	0.287
CUL4A_Q13619_289_PLIACVEK (UniProt Q13619)	-0.0504	-0.0116
DCTN1_Q14203_81_KYFTCDEGHGIFVR (UniProt Q14203)	0.079	-0.325
CUL5_Q93034_265_RECNSVEALMECCVNALVTSFK (UniProt Q93034)	0.18	0.12
DCAF15_Q66K64_211_AHPGDPNAQCLR (UniProt Q66K64)	0.0803	0.174
DCAF6_Q58WW2_766_HTAEHLMLLEADNHVVNCLQPHPFDPILASSGIDYDIK (UniProt Q58WW2)	0.0173	0.185
DARS2_Q6PI48_54_TNTCGELR (UniProt Q6PI48)	0.146	0.241
DCTD_P32321_40_DPNSQVGACIVNSENK (UniProt P32321)	0.0273	0.408
DBR1_Q9UK59_339+347_VPCNFSVTAACYDPSKPQTQMQLIHR (UniProt Q9UK59)	-0.11	-0.187
DARS2_Q6PI48_371_AICIPEGAK (UniProt Q6PI48)	-0.0513	0.0223
CXXC1_Q9P0U4_181+187_TEDCGHCDFCR (UniProt Q9P0U4)	-0.0321	-0.0477
CYB5R3_P00387_204_DPDDHTVCHLLFANQTEK (UniProt P00387)	-0.099	0.158
DARS2_Q6PI48_202_MREYLCNLHGFVDIETPTLFK (UniProt Q6PI48)	0.000167	0.144
CTSG_P08311_186_RQICVGDR (UniProt P08311)	-0.0544	0.0512
CTSB_P07858_108_DQGSCGSCWAFGAVEAISDR (UniProt P07858)	-0.139	-0.322
CTSG_P08311_207_GDSGGPLLCNNVAHGIVSYGK (UniProt P08311)	-0.207	-0.197
DCAF1_Q9Y4B6_967_ERPSPCNGR (UniProt Q9Y4B6)	-0.152	-0.733
DAP3_P51398_139_TLSLCHVIHFCAK (UniProt P51398)	-0.0146	-0.0743

Target	probe-labelled cysteine peptide fold change (10 µM)	probe-labelled cysteine peptide fold change (50 µM)
DAG1_Q14118_713_ATSITVTGSGSCR (UniProt Q14118)	-0.158	-0.346
CTU2_Q2VPK5_457_REDPQACIEEQLCYSCR (UniProt Q2VPK5)	0.0616	-0.0015
DCAF6_Q58WW2_190_EDCKDDILINCR (UniProt Q58WW2)	0.117	-0.0419
CUL7_Q14999_1106_LTHLLVHVEPCEAPPPVVATPR (UniProt Q14999)	-0.256	-0.365
DDAH1_O94760_222_LTVPDDIAANCIYLNIPNK (UniProt O94760)	0.216	-0.124
DCLK2_Q8N568_288_YAQDDFVLDHSECR (UniProt Q8N568)	-0.141	0.0213
DCAF6_Q58WW2_593_SCGVPEESASSEK (UniProt Q58WW2)	-0.0858	-0.182
CTSZ_Q9UBR2_33_RGQTCYRPLR (UniProt Q9UBR2)	-0.262	-0.237
CTSC_P53634_448_RGTDECAIESIAVAATPIPK (UniProt P53634)	-0.102	0.0228
DCAF5_Q96JK2_812_ASGSTLNSGSGNCPR (UniProt Q96JK2)	-0.357	-0.302
CUL1_Q13616_137_VLNGICAYLNR (UniProt Q13616)	-0.0914	0.0528
CTR9_Q6PD62_533_EHPNYVDCYLR (UniProt Q6PD62)	0.106	0.142
DCTN5_Q9BTE1_97_GVAFFPLHIGDHVFIEEDCVVNAAQIGSYVHVGK (UniProt Q9BTE1)	0.24	0.2
CXXC1_Q9P0U4_566_VPADEVCGCPLVR (UniProt Q9P0U4)	0.0407	0.0191
CTSS_P25774_213_CQYDSK (UniProt P25774)	0.0136	-0.108
CYFIP1_Q7L576_1124_GPLPSNGVMHVDECVEFHR (UniProt Q7L576)	0.0556	0.126
DCUN1D4_Q92564_253_DQWCNVLEFSR (UniProt Q92564)	0.0103	0.038
DCAF11_Q8TEB1_288_EVLGGANDGCLYVFDR (UniProt Q8TEB1)	0.151	0.357
DAXX_Q9UER7_720_LSQTPHSQPPRPGTCK (UniProt Q9UER7)	-0.415	-0.341
DCLRE1C_Q96SD1_61_VYLYCSPVTK (UniProt Q96SD1)	-0.11	0.165
CXorf56_Q9H5V9_69_FCNTEDEETMYLR (UniProt Q9H5V9)	0.0387	-0.244

Pulled one by one from above, two records:
Target	probe-labelled cysteine peptide fold change (10 µM)	probe-labelled cysteine peptide fold change (50 µM)
CYLD_Q9NQC7_934_RIQGCAR (UniProt Q9NQC7)	-0.0418	-0.316
CWF19L1_Q69YN2_11_LLACGDVEGK (UniProt Q69YN2)	-0.0743	0.168
